Laboratory results as given in US20030119727A1 (Genentech, published 2003).
No constants are given. Whether binding was seen depends on the method and setting. Some results given as binding are weak or reduced against the parent protein; the word gives no strength.

The chains behind the UniProt entries cited, without tags or fusion partners. Where a name states a change or a piece, a line headed by the entry shows the natural chain unless it says otherwise.
UniProt P13726: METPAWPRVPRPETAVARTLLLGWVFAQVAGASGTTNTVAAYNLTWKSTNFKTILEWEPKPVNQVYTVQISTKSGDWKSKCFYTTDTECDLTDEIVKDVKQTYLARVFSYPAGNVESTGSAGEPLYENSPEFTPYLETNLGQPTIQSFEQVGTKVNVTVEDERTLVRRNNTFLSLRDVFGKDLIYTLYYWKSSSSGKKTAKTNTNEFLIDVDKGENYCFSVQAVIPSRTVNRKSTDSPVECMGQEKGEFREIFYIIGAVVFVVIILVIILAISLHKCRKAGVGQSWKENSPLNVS
UniProt P08709: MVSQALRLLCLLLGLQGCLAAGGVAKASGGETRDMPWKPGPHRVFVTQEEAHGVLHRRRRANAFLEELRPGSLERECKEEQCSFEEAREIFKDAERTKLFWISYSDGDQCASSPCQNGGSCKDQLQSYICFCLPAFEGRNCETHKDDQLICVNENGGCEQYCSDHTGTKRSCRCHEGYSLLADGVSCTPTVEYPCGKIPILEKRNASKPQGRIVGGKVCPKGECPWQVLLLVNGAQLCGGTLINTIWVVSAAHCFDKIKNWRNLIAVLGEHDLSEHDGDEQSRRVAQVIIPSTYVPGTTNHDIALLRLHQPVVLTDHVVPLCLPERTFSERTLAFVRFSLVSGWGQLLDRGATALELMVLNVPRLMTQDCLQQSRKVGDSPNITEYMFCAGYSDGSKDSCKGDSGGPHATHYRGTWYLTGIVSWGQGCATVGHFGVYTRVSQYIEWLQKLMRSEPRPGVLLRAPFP

What was measured:
[1] = target: covalently active site blocked TF-FVIIa (active site of FVIIa alkylated with biotinylated EGR chloromethylketone) (human) (UniProt P13726+P08709); assay: phage binding to coated wells
[2] = target: recombinant human Factor VIIa (human) (UniProt P08709); assay: FVIIa Binding ELISA, competition with TF147b

| Binder | binding [1] | binding [2] |
| --- | --- | --- |
| EAALCDDPRLDRWYCIFAGE [Phage bearing the TF56 peptide sequence … (Pool E clone, polyvalent phage display)] | binds | – |
| ALCDNPRIDRWYCQFVEG [peptide TF151] | – | binds |
